Data taken from ChEMBL document CHEMBL3988442, “University of Dundee, Small-Polar-MMV Screening Library” (2021).

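Viability assay of Plasmodium falciparum sporozoites; the read-out is not stated. The concentration is filed as 10 mM, unlikely as a test dose, so the dose is not known. Higher reads as lower viability (inferred: compounds with an IC50 in retests scored well above the rest). Strong results were mostly tested again. Of about 34,000 compounds tested this way, about 280 (0.84%) reached 50% or more in at least one test.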

Values are the deposited “Percent Effect”, in %. The controls that fix the scale are not given in the record; negative values are as filed. This is an unselected part of the compounds tested. Two or more numbers in one place are separate tests of the same structure; such repeats can differ widely.

structure	effect
CCNc1cc(N2CCN(C(=O)c3ccc(OC)cc3)CC2)nc(C)n1	0.2632
CC(C)N(C)CC(=O)N(C)Cc1nc(C(F)(F)F)cs1	-20.99
COc1ccc(F)cc1C(=O)N(C)[C@@H]1CC[C@@H](O)[C@@H]1O	-0.6394
NC(c1ccccc1)c1ccc(OC(F)F)cc1 (centres undefined)	-20.11 & -16.77
Cc1cccc(C(=O)Nc2ccc(OC3CCN(C)CC3)cc2)c1	84.14 & 90.45 & 76.34
Cc1cnc(C(=O)N2CCC3(CCCN(c4nncs4)C3)C2)cn1 (centres undefined)	-3.322
O=C(CN1CCc2cncnc2C1)NCCOc1cccc(Cl)c1	-3.321
CCCOc1cc(C)ccc1NC(=O)N(C)Cc1cnn(C)c1	8.242
O=C(O)C(F)(F)F.[H][C@]12CCN(C(=O)CC3CC3)[C@@]1([H])CC[C@@H](COCc1cccc(C)n1)O2	-4.948
CCN(CCNS(=O)(=O)N1CCOCC1)C(=O)OC(C)(C)C	6.834
CC(C)C(C)(C#N)NC(=O)CN1CCC(c2ccnn2CCO)CC1 (centres undefined)	3.122
CC(=O)N1CCCN(Cc2csc(-c3ncccn3)n2)CC1	53.68 & 9.808 & 38.06
CC(=O)N1N=C(c2cccs2)OC1C(=O)Nc1ccc(C)cc1 (centres undefined)	-16.37
COc1ncccc1NC(=O)NC(C)c1nncn1C (centres undefined)	-2.704
Cc1cccc(-c2nc(C)nn2CC(=O)NC(C)C)c1	15.74
CCc1nccn1C1CCCN(C(=O)CCOCC(F)(F)F)C1 (centres undefined)	0.2657 & 18.61 & -4.801
[H][C@]12CCN(C(=O)c3ccc4[nH]ccc4c3)C[C@@]1([H])OCCN(CCOC)C2	2.3
c1ccc(Cc2cccc(C3CCCN3C3CCOCC3)n2)cc1 (centres undefined)	20.98
CC(CNC(=O)Nc1cn[nH]c1)N1CCc2ccccc2C1 (centres undefined)	-24.74
CN(C)[C@@H]1CN(Cc2ccccn2)C[C@H]1c1cn(C)c2ccccc12.Cl	-5.18
Cc1nccc(C2CCCCN2Cc2cccc(F)c2)n1 (centres undefined)	1.402
CC(C)c1nc(C2CCCN2CC(=O)N2CCc3ccccc32)no1 (centres undefined)	-14.01
CC(c1ccccn1)N(C)Cc1cc2cc3c(cc2[nH]c1=O)OCO3 (centres undefined)	18.92 & 31.37 & 23.56
CCc1ccc(C(C)NC(=O)N2CCC(n3cncn3)CC2)cc1 (centres undefined)	11.68
CC(C)c1nc(CCN(C)C(=O)C2COc3ccccc3C2)no1 (centres undefined)	-4.123
Cc1ccc(C(=O)N2CCCC3(CCCC(=O)N3C)C2)cc1F (centres undefined)	-0.1023
CCc1ncncc1C(=O)N1CCN(Cc2ccsc2)CC1	-64.72
CN(C)c1cc(C(=O)N2CCN(c3cc(C#N)ccn3)CC2)ccn1	0.09769
CC(Cn1cc(Cl)cn1)C(=O)Nc1ccc(CN2CCCCCC2)cc1 (centres undefined)	4.408
OC(CNCCn1cccn1)c1ccc(C(F)(F)F)cc1 (centres undefined)	4.338
Cn1cc(CN2CCC(F)(F)C3(CCN(c4ncc(F)cn4)C3)C2)cn1.O=C(O)C(F)(F)F (centres undefined)	1.522
Cc1cnn(CCCNC(=O)NCCS(=O)(=O)Nc2ccccc2)c1	-0.3581
Cc1nc(C2CCCN2Cc2nnc(C3CC3)o2)no1 (centres undefined)	-3.926
COc1ccccc1OC(C)CNC(=O)c1cnc[nH]1 (centres undefined)	-2.686
CC(C)C1SCC(=O)Nc2c1c(O)nn2C1CCCC1 (centres undefined)	-6.085
O=C(O)C(F)(F)F.[H][C@@]12CN(Cc3ccsc3)C[C@]1([H])[C@@H]2CC(=O)N1CCCC1	1.027
CC(NC(=O)NCCCN(C(C)C)S(C)(=O)=O)c1ccncc1 (centres undefined)	-3.634
CC(C)c1nc(CNCC2CCCN2c2cccnn2)cs1 (centres undefined)	15.86
CC(=O)N(Cc1noc(C2CC2)n1)C1CCN(Cc2ccncc2)C1 (centres undefined)	3.382
CCC(CO)NC(=O)c1ccc2ccc(N(C)CC3CC3)n2c1 (centres undefined)	0.1705
Cn1ccnc1C(O)c1ccccc1N1CCN(Cc2cccs2)CC1 (centres undefined)	9.056
O=C(COc1cccc2c1CCC2=O)NCC(F)(F)F	-15.93
CNc1ncc(C(=O)N2CCC3(CC2)Nc2ccccc2NC3=O)cn1	-7.982
O=C(O)C(F)(F)F.O=C(O)C(F)(F)F.[H][C@@]12C[C@@H](C(=O)NC)N(C)[C@]1([H])CN(Cc1nccs1)C2	0.1023
Cc1c[nH]nc1C1CCN(c2cnccn2)C1 (centres undefined)	-8.223
Cc1nc(CN2CCC3(CC2)CC(c2cccnc2)C(=O)N3C)cs1.O=C(O)C(F)(F)F.O=C(O)C(F)(F)F (centres undefined)	3.813
N#Cc1cccc(NC(=O)N(CC(F)F)C2CC2)c1	-21.81
CSc1ccccc1NC(=O)CCC(=O)N(C)C1CCN(C)CC1	0.5917
O=C(N1CCCC1)N1CCN(Cc2cccnc2)c2ncccc2C1.O=C(O)C(F)(F)F.O=C(O)C(F)(F)F	8.938
CC(C)Oc1cccc(C(=O)C2CCCN(C(=O)c3ncn[nH]3)C2)c1 (centres undefined)	7.647
Cc1cc(C)cc(N(C)S(=O)(=O)c2cc(C(=O)O)cs2)c1	3.36
c1ccc(-c2nnc(C3CCCN(CC4CCCCC4)C3)o2)nc1 (centres undefined)	11.76
CC(NCc1ccc(Cl)o1)c1nnc2n1CCCC2 (centres undefined)	-3.157
Cc1cccc(-c2noc(CN3CCOC(Cn4cccn4)C3)n2)c1 (centres undefined)	1.754
Cn1ccc(C(=O)NCc2ccc(CN3CCCCC3)cc2)cc1=O	-6.785
Cc1ccc(C(=O)N2CCN(C(=O)NC(C)Cn3ccnc3)CC2)o1 (centres undefined)	-5.606
CCCNC(=O)c1sccc1N(C)S(=O)(=O)c1ccc(Cl)cc1	18.83
O=C1C(NS(=O)(=O)c2ccc(F)cc2F)CCN1Cc1ccccc1 (centres undefined)	17.91
CC(C)n1ncc2c1NC(=O)CC21C(=O)Nc2c(Cl)cccc21 (centres undefined)	-18.64
CCC(=O)NC1CCN(c2cccc(CC)c2)CC1	-3.103
CNC(=O)[C@@H]1C[C@@H](NC(=O)c2ccc(OC)o2)CN1Cc1sccc1C	-7.996
CCc1nnc2n1CCN(C(=O)c1ccc3nc(C)c(C)nc3c1)C2	-14.33
Cn1ncc2c1CCCC2NCc1ccc(Cl)s1 (centres undefined)	-1.156 & -7.705 & -11.46
CCC1=NC2(CCC(C(=O)Nc3ccc(F)cc3)CC2)C(=O)N1C (centres undefined)	-1.733
Cc1cnn(CCNCC(O)COc2ccc(Cl)cc2Cl)c1 (centres undefined)	17.25
[H][C@@]12CCN(C(=O)Cc3ccco3)C[C@]1([H])OCCNC2=O	8.773
CNCC(=O)Nc1cccc(-c2cnc(NCCS(C)(=O)=O)nc2)c1	-5.843
COc1ccc(-c2noc(CNC(C)Cn3cccn3)n2)c(OC)c1 (centres undefined)	18.66
CN(Cc1cccnc1)CC1CN(C(=O)C2CC2)Cc2nccn2C1.O=C(O)C(F)(F)F.O=C(O)C(F)(F)F (centres undefined)	-0.3367
Nc1cc2c(nn1)CCN(C(=O)c1ccccc1Oc1cccnc1)C2	-3.657
Cc1cc(Oc2ccccc2F)nc(C2CCCCN2)n1.Cl.Cl (centres undefined)	-15.37
O=C(O)C(F)(F)F.O=C(O)C(F)(F)F.[H][C@@]12CC(COc3ccccn3)C[C@@]1([H])N(Cc1cccc(C)n1)CCO2 (some centres undefined)	1.906
COc1cc(CNCc2ccnc(N3CCOCC3)c2)cc(OC)c1	10.26
CC(=O)N(Cc1noc(C)n1)C1CCN(Cc2ccccc2C#N)C1 (centres undefined)	-14.8
[H][C@]12CN(Cc3cccc(F)c3)C(=O)[C@@]1([H])CN(S(=O)(=O)CC)C2	9.758
CCc1ccc(C(NC(=O)CCS(C)(=O)=O)C(C)(C)C)o1 (centres undefined)	-3.842
O=C(NCC1CCN(CCc2ccccc2)C1)c1c(F)cccc1F (centres undefined)	1.433

Repeated from the top, 9 entries:

- CCNc1cc(N2CCN(C(=O)c3ccc(OC)cc3)CC2)nc(C)n1 : 0.2632%
- CC(C)N(C)CC(=O)N(C)Cc1nc(C(F)(F)F)cs1 : -20.99%
- COc1ccc(F)cc1C(=O)N(C)[C@@H]1CC[C@@H](O)[C@@H]1O : -0.6394%
- NC(c1ccccc1)c1ccc(OC(F)F)cc1 (centres undefined) : -20.11% & -16.77%
- Cc1cccc(C(=O)Nc2ccc(OC3CCN(C)CC3)cc2)c1 : 84.14% & 90.45% & 76.34%
- Cc1cnc(C(=O)N2CCC3(CCCN(c4nncs4)C3)C2)cn1 (centres undefined) : -3.322%
- O=C(CN1CCc2cncnc2C1)NCCOc1cccc(Cl)c1 : -3.321%
- CCCOc1cc(C)ccc1NC(=O)N(C)Cc1cnn(C)c1 : 8.242%
- O=C(O)C(F)(F)F.[H][C@]12CCN(C(=O)CC3CC3)[C@@]1([H])CC[C@@H](COCc1cccc(C)n1)O2 : -4.948%